PubChem BioAssay AID1159578 – Peter MacCallum Cancer Centre | 2015

Purpose: 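Genome-wide hunt for genes controlling movement of lymphatic endothelial cells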 (primary screen)
System: human lymphatic endothelial cells
Reagent: siRNA pool against human genes, 40 nM
Duration: 48 h after transfection
Detection: 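Cells stained with dye and imaged after a scratch; covered wound area and nuclei counted, duplicates averaged, migration set against mock wells and turned into a robust z-score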
Scale: migration robust z-score: higher = faster migration into the scratch; nuclei per well: higher = more cells in the well
Hit rule: 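Migration changed when robust z exceeds 2 or falls below -2 and mean nuclei number is at least 3300; otherwise not called changed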
Meaning of the calls: active = migration changed; inactive = no migration change, or too few cells
The whole screen tested about 18,000 reagents; shown is an unselected part. About 1,030 of them (5.7%) count as active. 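Inactive calls also include pools with fewer than 3300 nuclei, whose migration was not assessed.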 The raw values are shown without normalisation. Entries without a mark were called inactive. Further read-outs or replicates are left out here.

FAM161A | migration robust z-score = -1.38; migration class with cell-count check = migration z between -2 and 2; enough cells; nuclei per well, duplicate mean = 4172
SCN11A | migration robust z-score = 0; migration class with cell-count check = migration z between -2 and 2; enough cells; nuclei per well, duplicate mean = 5359
SLC38A9 | migration robust z-score = 1.27; migration class with cell-count check = migration z between -2 and 2; enough cells; nuclei per well, duplicate mean = 5020
UACA | migration robust z-score = 0.06; migration class with cell-count check = migration z between -2 and 2; enough cells; nuclei per well, duplicate mean = 6263
ELAC1 | migration robust z-score = 1.45; migration class with cell-count check = migration z between -2 and 2; enough cells; nuclei per well, duplicate mean = 6066

In a second layout: results already given.
| gene | migration robust z-score | migration class with cell-count check | nuclei per well, duplicate mean |
| --- | --- | --- | --- |
| SCN11A | 0 | migration z between -2 and 2; enough cells | 5359 |
| SLC38A9 | 1.27 | migration z between -2 and 2; enough cells | 5020 |

More records follow.
TMEM259 | migration robust z-score = -1.43; migration class with cell-count check = migration z between -2 and 2; enough cells; nuclei per well, duplicate mean = 5090
ITGA5 | migration robust z-score = -0.91; migration class with cell-count check = migration z between -2 and 2; enough cells; nuclei per well, duplicate mean = 5714
IFIT2 | migration robust z-score = -0.81; migration class with cell-count check = migration z between -2 and 2; enough cells; nuclei per well, duplicate mean = 5800
NEGR1 | migration robust z-score = 0.02; migration class with cell-count check = migration z between -2 and 2; enough cells; nuclei per well, duplicate mean = 6746
DCPH1 | migration robust z-score = -0.22; migration class with cell-count check = migration z between -2 and 2; enough cells; nuclei per well, duplicate mean = 5082
SMOC2 | migration robust z-score = 0.5; migration class with cell-count check = migration z between -2 and 2; enough cells; nuclei per well, duplicate mean = 5194
CARD11 | migration robust z-score = 1.25; migration class with cell-count check = migration z between -2 and 2; enough cells; nuclei per well, duplicate mean = 4763
